These are yes or no findings as the source states them, for the method shown. Some entries that bind do so weakly or less than the wild type.
Target: HA-AT1aR stably expressed in mouse aortic smooth muscle cells (MOVAS-AT1R) (UniProt P25095)
Assay: radioligand binding

Amino acid sequences for entries named in this document (tags omitted).
UniProt P25095, whole entry: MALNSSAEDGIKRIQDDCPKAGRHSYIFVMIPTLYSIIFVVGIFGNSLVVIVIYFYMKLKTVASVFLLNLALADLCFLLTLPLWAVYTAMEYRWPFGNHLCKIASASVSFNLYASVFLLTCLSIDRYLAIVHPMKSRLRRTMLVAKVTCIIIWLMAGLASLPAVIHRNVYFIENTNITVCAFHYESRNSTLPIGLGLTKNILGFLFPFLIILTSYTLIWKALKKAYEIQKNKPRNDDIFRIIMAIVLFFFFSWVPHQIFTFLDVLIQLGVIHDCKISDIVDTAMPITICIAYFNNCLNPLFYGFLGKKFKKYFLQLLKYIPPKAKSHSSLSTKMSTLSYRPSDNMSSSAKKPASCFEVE

B1: ^125I-Angiotensin IV (angiotensin 3-8) (peptide)
peptide: VYIHPF
modifications: 125I label (radio-iodinated; residue not stated)
- binding: binds

— publication doi:10.1101/2025.01.29.635371
